Data reported in article PMC3837162.
No constants are given. Whether binding was seen depends on the method and setting. Binding seen in cells or lysates may run through a third protein. Here binding means that the protein was enriched with, or labelled near, the bait; the list need not be complete.

The chains behind the UniProt entries cited, without tags or fusion partners.
UniProt P84095: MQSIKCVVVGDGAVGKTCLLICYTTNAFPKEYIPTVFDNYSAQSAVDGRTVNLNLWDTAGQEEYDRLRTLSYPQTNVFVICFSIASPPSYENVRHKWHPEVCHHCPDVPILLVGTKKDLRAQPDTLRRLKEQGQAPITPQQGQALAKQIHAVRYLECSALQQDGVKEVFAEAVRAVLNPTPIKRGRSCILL

Target: GST-RhoG fusion protein (UniProt P84095)
Experiment: affinity purification with mass spectrometry; GTPγS-loaded (100 uM) GST-RhoG-Sepharose beads rotated with washed human platelet lysates (500 ul, 5 x 10^8/ml) for 1 h at 4 °C; bound proteins eluted in Laemmli buffer, SDS-PAGE, in-gel tryptic digestion, LTQ Orbitrap Velos; three donors; only the target purified

B1: Protein S100-A8 (protein, UniProt P05109 1-93)
chain: MLTELEKALNSIIDVYHKYSLIKGNFHAVYRDDLKKLLETECPQYIRKKGADVWFKELDINTDGAVNFQEFLILVIKMGVAAHKKSHEESHKE
binding: binds
